# Values of other authors in patent publication EP1131337B1 (DABUR PHARMA LTD., priority 1998, dated 2000).
# At least one compound was matched to its structure with a doubt left.
# Test system: human melanomas
# Conditions: athymic mice carrying human melanomas; Nature Medicine 1995, WO 96/29068; cited from earlier work
compound,measurement,value
C=C(C)[C@@H]1CC[C@]2(C(=O)O)CC[C@]3(C)[C@H](CC[C@@H]4[C@@]5(C)CC[C@H](O)C(C)(C)[C@@H]5CC[C@]43C)[C@@H]12 [betulinic acid],tumor growth,completely inhibited
